We go through 1 sequence from paper PMC11835620.

The chains behind the UniProt entries cited, without tags or fusion partners.
UniProt P06730, whole entry: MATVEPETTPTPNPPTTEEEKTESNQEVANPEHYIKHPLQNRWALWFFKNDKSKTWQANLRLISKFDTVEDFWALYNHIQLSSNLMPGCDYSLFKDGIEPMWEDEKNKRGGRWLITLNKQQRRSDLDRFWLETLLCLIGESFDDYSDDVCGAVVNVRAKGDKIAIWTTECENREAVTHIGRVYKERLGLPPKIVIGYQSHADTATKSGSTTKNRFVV

Construct, isoform or probe ends are uncertain for at least one entry. A weaker result is weaker than the reference pair of the same experiment.

This series has as its target eIF4E (human) (UniProt P06730). In words: EMSA. To be noted: KD measured but printed only in the figure, lower affinity than AG 3'OH; 5' cap m7G(3'OMe)pppm6A(2'OMe)G; A1 is N6,2'-O-dimethyl; cap m7G not in strand; EMSA: 25 nM oligo, eIF4E 5 nM to 1.5 uM (2-fold dilutions), 100 mM NaCl, temperature not given; recombinant protein.

In the case of “AGGAAAUAAGAGAGAAAAGAAGAGUAAGAAGAAAUAUAAGAGC [M6 3'OMe cap 43-mer]”, the binding result is recorded as “binds more weakly”.
